Results are given in words; binding and its absence hold for the method and conditions named. Binding seen in cells or lysates may run through a third protein. A result given as binding can be weak or reduced; the word gives no strength.

For the assay, the target named is MAP-free, paclitaxel-stabilized microtubules. Briefly: co-sedimentation.

B1: KIF15 (protein, UniProt Q6P9L6 1-1387)
chain: MAPGCKSELRNVTNSHSNQPSNEGDAIKVFVRIRPAEEGARSADGEQSFCLSVLSQTTLRLHSNPDPKTFVFDYVAGMDTTQESVFSTVAKSIVESCMSGYNGTIFAYGQTGSGKTFTMMGPSDSDNFSHNLRGIIPRSFEYLFSLIDREKEKAGAGKSFLCKCSFIEVYNEQIYDLLDSASVGLYLREHIKKGVFVVGAVEQAVTSAAETYQVLSRGWRNRRVASTSMNRESSRSHAVFTITIESMEKSSETVNIRTSLLNLVDLAGSERQKDTHAEGMRLKEAGNINRSLSCLGQVITALVDVGNGKQRHICYRDSKLTFLLRDSLGGNAKTAIIANVHPGSRCFGETLSTLNFAQRAKLIKNKAVVNEDTQGNVSQLQAEVKRLKEQLSQFTSGQITPESLLARDKEKTNYIEYFLEAMLFFKKSEQEKKSLIEKITQLEDLTLKKEKFIQSNKMIVKFREDQIMRLERLHKEGRGSFLPEEQDRLLSELRDEVQTLREHVEHHPRLAKYAMENHSLREENRRLKLLAPVKRAHEIDAQSIARLEKAFAEVSSTETNDKGLQGFSPKALKESSFFTNTEKLKAQLLQIQTELNNSKQEYEEFKELTRKKQLELESELQSLQKANLNLENLLEATKVCKRQEVSQLNKLHAETLKIITTPTKAYQLCSRLVPKSSPEVGSFGFLCTESSSRLDNDILNEPVPPEMSEQALEAVSEELRTVQEQLSVLQVKLDEEERKNLKLQQNVDKLEHHSTQMQELFSSERSDWTKQQQEHVTQLSDLEKQLQDAQTKNEFLKCEVHDLRIVLNSADKELSLVKLEYSTFKENHEKELSQLSERHVQVQLQLDNARLENEKLLESQACLQDSYDNLQEVMKFEIDQLSKNLQNCKQENETLKSDLHNLVELFEAEKERNNKLSLQFEEDKENSSKEILKVLETVRQEKQKEMAKCEKQMAKIQKLEESLLATENVISSLEKSRESDKELVTNLMNQIQELRISIGEKSETIATLKQELQDINCKYNASLADKEESKELIRRQEVDILELKETLRLRILSEDIERDMLCEDLAHATEQLNMLTEASKKHSGLLQSAQEELTRKEALIQELQHKLNQEKEEVEQKKNEFSLKMRQLEHVMGSATEYPQSPKTPPHFQAHLAKLLETQEQEIEDGRASKTSLQHLVTKLNEDREVKNAEILRMKDQLCEMENLRLESQQLREKNWLLQRQLDDVKRQQESGDQSHPDSQQLKNEHEEIIKERLAKNKLIEEMLKMKTNLEEVQSALHSKEKACHRMSEEIERTRTLESRAFQEKEQLRSKLEEMYEERERTFLEMEMLKKQLEFLAEENGKLVGHQNLHQKIQYVVRLKKENIRLTEETEKLRAENLFLKEKKKEF
Regarding B1, the binding entry is “binds”.

B2: DNAAF1 (protein, UniProt Q9D2H9 1-634)
chain: MHPEVSEPPVDSVAEPSLEESAGDHGDAGPGIRKEEISETKETCAGPCTTSCPSQQQPSGDNGSEGFCTHSRDDREDRGPRMTKQFLQKLCKQHKLYVTPALNDTLYLHFKGFDRIENLEEYTGLRCLWLECNGIQRIENLQAQSELRCLFLQVNLLHKIENLEPLQKLDALNLSNNYIKTIENLSCLPVLNTLQMAHNRLETVADIEHLRECLRLCVLDLSHNALSDPEILSVLESMPCLRVLNLMGNPVTKHIPNYRRTVTVRLKHLTYLDDRPVFPKDRACAEAWARGGYAAEKEERRQWESREHKKITDSLEALAMIKRRAEERKKARDRGETPLPDSEGSIPTSPEAEEKQPMGEIQKKMELFVEESFEAKDELFPETPGGEKELHVVVVNGAVENPDLSGSLAHNQTPVVVTPEESTSPVAATDGARTEDIEAVAVEIKERLFIDDLPDLEDAEGTDVSVEDQIKETDIPRIQAISSLSDDSDPELDELSLSTSEATPTGATGALSHIFAISKGPSTAATVPFTDICKPIATTDLESQGQDCGAAASRPLIQELNDEPAEEAANQPLPPQTCASDPALAHPSEDGDSDSQLPAATLLGDGAEDEAESSVHPKEPSTRVGLEDIEFGLD
In the case of B2, the binding entry is reported as “binds”.

The values above are taken from publication doi:10.1101/2025.05.28.656678.
